Results from publication doi:10.1101/2022.07.16.500195.
Results are given in words; binding and its absence hold for the method and conditions named. For some assays here: Binding seen in cells or lysates may run through a third protein. Some results given as binding are weak or reduced against the parent protein; the word gives no strength.

Experiments:
[1] = biological target: PulL^C264L with Cys at position 251 (PulL^V251C) (Klebsiella oxytoca) (UniProt P15751); assay: cross-linking
[2] = biological target: PulM^C17L-L18C (Klebsiella oxytoca) (UniProt P15752); assay: cross-linking
[3] = biological target: PulM^WT (native PulM, Cys at position 17) (Klebsiella oxytoca) (UniProt P15752); assay: cross-linking
[4] = biological target: full-length PulM fused to T18 or T25 (T18-PulM, T25-PulM) (Klebsiella oxytoca) (UniProt P15752); assay: two-hybrid
[5] = biological target: full-length PulL fused to T18 or T25 (T18-PulL, T25-PulL) (Klebsiella oxytoca) (UniProt P15751); assay: two-hybrid
[6] = biological target: PulL^C264L with Cys at position 250 (PulL^I250C) (Klebsiella oxytoca) (UniProt P15751); assay: cross-linking

## PulL^C264L with Cys at position 251 (PulL^V251C) (from UniProt P15751 1-398)
[1]
  binding: binds
[2]
  binding: binds
[3]
  binding: binds

## PulM^WT (native PulM, Cys at position 17) (from UniProt P15752 1-161)
[3]
  binding: binds

## full-length PulM fused to T18 or T25 (T18-PulM, T25-PulM) (from UniProt P15752 1-161)
[4]
  binding: binds

## PulM^C17L-L18C (from UniProt P15752 1-161)
[2]
  binding: binds

## full-length PulL fused to T18 or T25 (T18-PulL, T25-PulL) (from UniProt P15751 1-398)
[5]
  binding: no binding
[4]
  binding: binds

## PulL^C264L with Cys at position 250 (PulL^I250C) (from UniProt P15751 1-398)
[6]
  binding: binds
[2]
  binding: binds
[3]
  binding: binds
